These are yes or no findings as the source states them, for the method shown. In cells and extracts the contact can be indirect. These calls come from enrichment with a bait or labelling near it, and not all partners need be listed. Values belong to the molecule of their own block, whether it stands above or below them.
Target: His6-tagged hFLNc d18-21 (FLNc d18-21-His-EEF) (human) (UniProt Q14315)
Assay: affinity purification with mass spectrometry; His6-tagged hFLNc d18-21 or hFLNc d1-3 (control) on Ni2+-NTA agarose beads, incubated with C2 myotube lysate in co-IP buffer (25 mM Tris, 150 mM NaCl, 0.5% sodium deoxycholate, 1% NP-40, 10% glycerol, 2 mM EDTA, pH 8.0) for 1 h at 10 °C; eluates by …; d18-21 against d1-3, n = 5; only the target purified

Sequences of proteins named here, by UniProt entry; tags and fusion partners are left off.
UniProt P62141: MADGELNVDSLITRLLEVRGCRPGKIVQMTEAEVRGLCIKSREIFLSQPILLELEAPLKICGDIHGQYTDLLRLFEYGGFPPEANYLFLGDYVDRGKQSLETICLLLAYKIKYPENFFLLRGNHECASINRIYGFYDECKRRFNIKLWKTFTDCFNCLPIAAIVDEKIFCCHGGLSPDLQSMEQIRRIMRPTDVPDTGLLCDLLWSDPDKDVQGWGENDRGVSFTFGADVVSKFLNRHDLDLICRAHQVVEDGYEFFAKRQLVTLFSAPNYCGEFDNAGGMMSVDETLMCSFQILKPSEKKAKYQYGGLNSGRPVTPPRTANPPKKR
UniProt Q99NH2: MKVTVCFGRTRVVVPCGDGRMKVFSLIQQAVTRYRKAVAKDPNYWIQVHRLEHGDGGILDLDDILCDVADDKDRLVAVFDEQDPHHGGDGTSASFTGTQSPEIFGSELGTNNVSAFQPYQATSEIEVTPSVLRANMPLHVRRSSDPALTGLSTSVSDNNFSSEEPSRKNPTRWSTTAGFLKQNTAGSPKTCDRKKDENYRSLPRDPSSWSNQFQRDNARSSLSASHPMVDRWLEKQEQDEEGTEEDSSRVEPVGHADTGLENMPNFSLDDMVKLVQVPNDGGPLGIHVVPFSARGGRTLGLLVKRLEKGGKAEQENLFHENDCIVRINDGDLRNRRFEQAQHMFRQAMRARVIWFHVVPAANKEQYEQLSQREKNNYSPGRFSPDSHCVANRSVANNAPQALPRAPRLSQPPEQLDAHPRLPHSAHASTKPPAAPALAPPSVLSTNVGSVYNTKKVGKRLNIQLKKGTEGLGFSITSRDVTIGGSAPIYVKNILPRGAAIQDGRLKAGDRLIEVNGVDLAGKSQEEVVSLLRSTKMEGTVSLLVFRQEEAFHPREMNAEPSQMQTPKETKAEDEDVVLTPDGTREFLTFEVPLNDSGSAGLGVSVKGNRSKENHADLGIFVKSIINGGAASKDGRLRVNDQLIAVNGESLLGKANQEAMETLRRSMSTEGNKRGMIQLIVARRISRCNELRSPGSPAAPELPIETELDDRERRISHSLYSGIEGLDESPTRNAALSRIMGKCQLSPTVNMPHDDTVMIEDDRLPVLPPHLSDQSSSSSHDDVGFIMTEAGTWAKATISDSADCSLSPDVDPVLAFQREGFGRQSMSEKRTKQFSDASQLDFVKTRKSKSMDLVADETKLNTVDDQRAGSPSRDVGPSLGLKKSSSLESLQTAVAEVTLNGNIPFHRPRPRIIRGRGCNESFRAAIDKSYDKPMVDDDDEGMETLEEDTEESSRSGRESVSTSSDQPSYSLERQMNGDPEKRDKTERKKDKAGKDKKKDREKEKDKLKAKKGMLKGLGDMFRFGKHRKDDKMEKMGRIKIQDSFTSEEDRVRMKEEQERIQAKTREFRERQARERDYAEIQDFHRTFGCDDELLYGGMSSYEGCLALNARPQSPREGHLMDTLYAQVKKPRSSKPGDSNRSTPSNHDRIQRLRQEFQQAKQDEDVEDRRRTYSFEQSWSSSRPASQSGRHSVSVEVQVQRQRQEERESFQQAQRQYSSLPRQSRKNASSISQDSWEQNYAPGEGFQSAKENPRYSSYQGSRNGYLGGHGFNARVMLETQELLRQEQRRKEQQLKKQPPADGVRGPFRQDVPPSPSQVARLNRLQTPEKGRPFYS
UniProt Q9JLV1: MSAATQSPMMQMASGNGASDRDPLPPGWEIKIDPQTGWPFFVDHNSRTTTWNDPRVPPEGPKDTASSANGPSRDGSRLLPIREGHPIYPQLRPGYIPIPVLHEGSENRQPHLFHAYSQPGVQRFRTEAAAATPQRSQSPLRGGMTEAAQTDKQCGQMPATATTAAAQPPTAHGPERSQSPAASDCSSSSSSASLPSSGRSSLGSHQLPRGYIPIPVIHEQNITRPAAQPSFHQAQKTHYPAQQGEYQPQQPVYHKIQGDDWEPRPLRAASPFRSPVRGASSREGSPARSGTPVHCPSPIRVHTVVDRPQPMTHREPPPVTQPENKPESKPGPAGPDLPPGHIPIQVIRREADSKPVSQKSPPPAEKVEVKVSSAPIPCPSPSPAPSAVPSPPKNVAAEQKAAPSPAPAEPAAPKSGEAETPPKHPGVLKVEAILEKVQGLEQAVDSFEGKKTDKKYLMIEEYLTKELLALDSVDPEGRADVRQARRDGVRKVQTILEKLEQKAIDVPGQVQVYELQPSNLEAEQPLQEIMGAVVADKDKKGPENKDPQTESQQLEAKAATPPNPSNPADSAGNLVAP
UniProt P62137: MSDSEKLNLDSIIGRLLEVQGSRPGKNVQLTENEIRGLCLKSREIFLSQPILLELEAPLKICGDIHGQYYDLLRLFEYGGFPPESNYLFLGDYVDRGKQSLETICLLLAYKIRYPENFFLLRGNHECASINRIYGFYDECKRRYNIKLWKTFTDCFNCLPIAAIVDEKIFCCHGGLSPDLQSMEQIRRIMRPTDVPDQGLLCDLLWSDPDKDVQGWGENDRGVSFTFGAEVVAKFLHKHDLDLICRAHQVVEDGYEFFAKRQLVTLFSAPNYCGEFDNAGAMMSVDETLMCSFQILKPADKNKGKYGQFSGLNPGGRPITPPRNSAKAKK
UniProt P63087: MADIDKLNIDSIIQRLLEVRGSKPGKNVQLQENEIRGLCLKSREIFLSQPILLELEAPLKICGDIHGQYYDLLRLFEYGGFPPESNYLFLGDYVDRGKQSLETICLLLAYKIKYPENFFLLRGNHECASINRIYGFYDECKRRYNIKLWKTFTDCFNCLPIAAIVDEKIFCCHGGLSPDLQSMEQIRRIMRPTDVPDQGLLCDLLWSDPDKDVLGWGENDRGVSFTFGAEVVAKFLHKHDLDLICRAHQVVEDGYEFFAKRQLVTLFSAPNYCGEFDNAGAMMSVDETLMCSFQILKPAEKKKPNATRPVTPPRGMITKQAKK
UniProt Q69Z38: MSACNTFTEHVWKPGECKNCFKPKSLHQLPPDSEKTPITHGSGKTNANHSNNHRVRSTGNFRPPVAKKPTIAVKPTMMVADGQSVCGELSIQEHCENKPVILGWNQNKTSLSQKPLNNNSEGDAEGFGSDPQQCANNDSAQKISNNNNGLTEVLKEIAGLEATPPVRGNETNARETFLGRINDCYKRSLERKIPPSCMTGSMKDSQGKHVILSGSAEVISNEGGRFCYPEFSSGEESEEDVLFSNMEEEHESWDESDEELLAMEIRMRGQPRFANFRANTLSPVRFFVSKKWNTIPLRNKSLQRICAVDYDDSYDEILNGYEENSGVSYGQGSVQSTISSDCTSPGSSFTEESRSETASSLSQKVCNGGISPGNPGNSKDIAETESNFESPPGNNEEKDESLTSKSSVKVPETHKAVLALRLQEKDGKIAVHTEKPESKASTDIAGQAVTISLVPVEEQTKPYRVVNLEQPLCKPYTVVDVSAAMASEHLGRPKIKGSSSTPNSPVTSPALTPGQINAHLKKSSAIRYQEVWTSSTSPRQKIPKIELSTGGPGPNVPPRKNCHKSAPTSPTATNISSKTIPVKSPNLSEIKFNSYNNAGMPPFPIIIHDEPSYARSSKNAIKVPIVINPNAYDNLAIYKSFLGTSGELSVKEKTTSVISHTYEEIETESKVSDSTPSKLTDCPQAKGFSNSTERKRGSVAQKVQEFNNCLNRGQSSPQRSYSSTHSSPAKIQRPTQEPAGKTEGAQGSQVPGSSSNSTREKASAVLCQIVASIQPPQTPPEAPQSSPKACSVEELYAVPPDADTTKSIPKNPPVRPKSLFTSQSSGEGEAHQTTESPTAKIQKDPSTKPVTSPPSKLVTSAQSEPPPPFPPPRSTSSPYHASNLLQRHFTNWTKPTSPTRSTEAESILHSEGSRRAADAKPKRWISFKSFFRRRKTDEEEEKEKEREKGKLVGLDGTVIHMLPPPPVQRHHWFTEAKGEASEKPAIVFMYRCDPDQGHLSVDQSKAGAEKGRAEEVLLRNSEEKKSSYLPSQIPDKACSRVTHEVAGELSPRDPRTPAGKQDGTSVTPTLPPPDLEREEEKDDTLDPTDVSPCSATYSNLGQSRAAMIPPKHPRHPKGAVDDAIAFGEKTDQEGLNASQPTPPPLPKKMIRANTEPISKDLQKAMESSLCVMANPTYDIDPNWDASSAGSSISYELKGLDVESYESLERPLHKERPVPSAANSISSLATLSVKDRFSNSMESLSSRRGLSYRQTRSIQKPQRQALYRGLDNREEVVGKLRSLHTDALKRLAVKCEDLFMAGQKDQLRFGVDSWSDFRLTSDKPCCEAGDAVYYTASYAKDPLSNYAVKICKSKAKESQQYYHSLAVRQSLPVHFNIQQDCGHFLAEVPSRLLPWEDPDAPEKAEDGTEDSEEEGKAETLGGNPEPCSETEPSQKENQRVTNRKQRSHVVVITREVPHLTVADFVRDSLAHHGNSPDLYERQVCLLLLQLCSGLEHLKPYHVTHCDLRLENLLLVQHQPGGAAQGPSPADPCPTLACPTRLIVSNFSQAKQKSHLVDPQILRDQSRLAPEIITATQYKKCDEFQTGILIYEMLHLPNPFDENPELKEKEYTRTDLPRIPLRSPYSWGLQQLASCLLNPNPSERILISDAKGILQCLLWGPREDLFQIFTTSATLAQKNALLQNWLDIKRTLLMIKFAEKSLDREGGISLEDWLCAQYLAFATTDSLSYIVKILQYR

Molecule: PP1 catalytic subunit PPP1CB, endogenous in C2 myotubes (from UniProt P62141 1-327) (enzyme)
- binding: binds

Molecule: partitioning defective 3 homolog (PARD3), endogenous in C2 myotubes (from UniProt Q99NH2 1-1333)
- binding: binds

B2: HSPB8, endogenous in C2 myotubes (protein, UniProt Q9JK92 1-196)
chain: MADGQLPFPCSYPSRLRRDPFRDSPLSSRLLDDGFGMDPFPDDLTAPWPEWALPRLSSAWPGTLRSGMVPRGPPATARFGVPAEGRSPPPFPGEPWKVCVNVHSFKPEELMVKTKDGYVEVSGKHEEKQQEGGIVSKNFTKKIQLPAEVDPATVFASLSPEGLLIIEAPQVPPYSPFGESSFNNELPQDNQEVTCS
- binding: binds

B3: ATP-dependent 6-phosphofructokinase, muscle type (PFKM), endogenous in C2 myotubes (protein, UniProt P47857 1-780)
chain: MTHEEHHAAKTLGIGKAIAVLTSGGDAQGMNAAVRAVVRVGIFTGARVFFVHEGYQGLVDGGEHIREATWESVSMMLQLGGTVIGSARCKDFREREGRLRAAHNLVKRGITNLCVIGGDGSLTGADTFRSEWSDLLNDLQKDGKITAEEATKSSYLNIVGLVGSIDNDFCGTDMTIGTDSALHRIVEIVDAITTTAQSHQRTFVLEVMGRHCGYLALVTSLSCGADWVFIPECPPDDDWEEHLCRRLSETRTRGSRLNIIIVAEGAIDKNGKPITSEDIKNLVVKRLGYDTRVTVLGHVQRGGTPSAFDRILGSRMGVEAVMALLEGTPDTPACVVSLSGNQAVRLPLMECVQVTKDVTKAMDEKRFDEAIKLRGRSFMNNWEVYKLLAHVRPPVSKGGLHTVAVMNVGAPAAGMNAAVRSTVRIGLIQGNRVLVVHDGFEGLAKGQIEEAGWSYVGGWTGQGGSKLGTKRTLPKKNLEQISANITKFNIQGLVIIGGFEAYTGGLELMEGRKQFDELCIPFVVIPATVSNNVPGSDFSIGADTALNTICTTCDRIKQSAAGTKRRVFIIETMGGYCGYLATMAGLAAGADAAYIFEEPFTIRDLQVNVEHLVQKMKTTVKRGLVLRNEKCNENYTTDFIFNLYSEEGKGIFDSRKNVLGHMQQGGSPTPFDRNFATKMGAKAMNWMSGKIKESYRNGRIFANTPDSGCVLGMRKRALVFQPVTELKDQTDFEHRIPKEQWWLKLRPILKILAKYEIDLDTSDHAHLEHISRKRSGEAAV
- binding: binds

Now from value to molecule:

- binding: binds
Molecule: BAG3, endogenous in C2 myotubes (from UniProt Q9JLV1 1-577)

- binding: binds
Molecule: PP1 catalytic subunit PPP1CA, endogenous in C2 myotubes (from UniProt P62137 1-330) (enzyme)

- binding: binds
Molecule: PP1 catalytic subunit PPP1CC, endogenous in C2 myotubes (from UniProt P63087 1-323) (enzyme)

- binding: binds
Molecule: inactive tyrosine-protein kinase (PEAK1), endogenous in C2 myotubes (from UniProt Q69Z38 1-1735)

- binding: binds
B1: filamin-A-interacting protein 1 (FILIP1), endogenous in C2 myotubes (protein, UniProt Q9CS72 1-1214)
chain: MRSRNQGGESSSNGHVSCPKPSIISSDGGKGPSEDAKKNKANRKGEDDVMASGTVKRHLKPSGESEKKTKKPLELSKEDLIQLLSIMEGELQAREDVIHMLKTEKTKPEVLEAHYGSAEPEKVLRVLHRDAILAQEKSIGEDVYEKPISELDRLEEKQKETYRRMLEQLLLAEKCHRRTVYELENEKHKHTDYMNKSDDFTNLLEQERERLKKLLEQEKAYQARKEKENAKRLNKLRDELVKLKSFALMLVDERQMHIEQLGLQSQKVQDLTQKLREEEEKLKAITYKSKEDRQKLLKLEVDFEHKASRFSQEHEEMNAKLANQESHNRQLRLKLVGLSQRIEELEETNKSLQKAEEELQELRDKIAKGECGNSSLMAEVESLRKRVLEMEGKDEEITKTEAQCRELKKKLQEEEHHSKELRLEVEKLQKRMSELEKLEEAFSRSKSECTQLHLNLEKEKNLTKDLLNELEVVKSRVKELECSESRLEKVELSLKDDLTKLKSFTVMLVDERKNMMEKIKQEERKVDGLNKNFKVEQGKVMDVTEKLIEESKKLLKLKSEMEEKVYSLTKERDELMGKLRSEEERSCELSCSVDLLKKRLDGIEEVEREINRGRLCKGSEFTCPEDNKIRELTLEIERLKKRLQQLEVVEGDLMKTEDEYDQLEQKFRTEQDKANFLSQQLEEIKHQMAKNKAIEKGEAVSQEAELRHRFRMEEAKSRDLQAEVQALKEKIHELMNKEDQLSQLQVDYSVLQQRFMEEETKNKNMGREVLNLTKELELSKRYSRALRPSGNGRRMVDVPVASTGVQTEAVCGDAAEEETPAVFIRKSFQEENHIMSNLRQVGLKKPMERSSVLDRYPPAANELTMRKSWIPWMRKRENGPSAPQEKGPRPNQGTGHPGELVLAPKQGQPLHIRVTPDHENSTATLEITSPTSEEFFSSTTVIPTLGNQKPRITIIPSPNVMSQKPKSADPTLGPERAMSPVTITTISREKSPEGGRGAFADRPASPIQIMTVSTSAAPPEIAVSPDSQEVPMGRTILKVTPEKQTVPTPMRKYNANANIITTEDNKIHIHLGSQFKRSPGPAAAEGVSPVITVRPVNVTAEKEVSTGTVLRSPRNHLSSRPGANKVTSTITITPVTTSSTRGTQSVSGQDGSSQRPTPTRIPMSKGMKAGKPVVAAPGAGNLTKFQPRAETQSMKIELKKSAASSTASLGGGKG
